{"source": "PubChem BioAssay AID493246 | Drosophila RNAi Screening Center, 2011", "screen": "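Genes fly cells need to grow and stay alive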 (primary screen)", "system": "Drosophila Kc and S2R+ cells", "reagents": "long dsRNA against Drosophila genes", "detection": "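Cell number per well after knock-down, printed as raw plate values; calls were based on per-plate z-scores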", "direction": "Kc cell number and S2R+ cell number: higher = more cells remaining", "active means": "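Active when the per-plate z-score of cell number is 3 or more in the direction of fewer cells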", "note": "The deposit covers about 21,000 reagents; shown is a random part of those with a known target gene and a result. Over the whole deposit, 429 (2%) got an active call. 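Values are raw and not normalised between plates; calls rest on per-plate z-scores that were not deposited.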 Entries without a mark were called inactive. Not given: the amount of reagent, the time to read-out."}
{"gene":"CG32450","DRSC id":"DRSC11546","Kc cell number, rep 1":1.43e6,"Kc cell number, rep 2":1.51e6,"S2R+ cell number, rep 1":1.11e6,"S2R+ cell number, rep 2":1.27e6}
{"gene":"CG18367","DRSC id":"DRSC06545","Kc cell number, rep 1":1.59e6,"Kc cell number, rep 2":1.68e6,"S2R+ cell number, rep 1":1.30e6,"S2R+ cell number, rep 2":1.36e6}
{"gene":"qless","DRSC id":"DRSC15103","Kc cell number, rep 1":1.51e6,"Kc cell number, rep 2":1.51e6,"S2R+ cell number, rep 1":1.00e6,"S2R+ cell number, rep 2":1.09e6}
{"gene":"qless","DRSC id":"DRSC15507","Kc cell number, rep 1":1.58e6,"Kc cell number, rep 2":1.58e6,"S2R+ cell number, rep 1":1.05e6,"S2R+ cell number, rep 2":1.11e6}
{"gene":"Afg3l2","DRSC id":"DRSC10657","Kc cell number, rep 1":1.64e6,"Kc cell number, rep 2":1.69e6,"S2R+ cell number, rep 1":9.30e5,"S2R+ cell number, rep 2":1.05e6}
{"gene":"CG13893","DRSC id":"DRSC08363","Kc cell number, rep 1":1.59e6,"Kc cell number, rep 2":1.50e6,"S2R+ cell number, rep 1":9.79e5,"S2R+ cell number, rep 2":1.25e6}
{"gene":"GAA1","DRSC id":"DRSC18267","Kc cell number, rep 1":5.45e5,"S2R+ cell number, rep 1":8.87e5}
{"gene":"mago","DRSC id":"DRSC04703","Kc cell number, rep 1":1.68e6,"Kc cell number, rep 2":1.81e6,"S2R+ cell number, rep 1":1.40e6,"S2R+ cell number, rep 2":3.85e5}
{"gene":"Alg14","DRSC id":"DRSC19983","Kc cell number, rep 1":1.50e6,"Kc cell number, rep 2":1.52e6,"S2R+ cell number, rep 1":1.08e6,"S2R+ cell number, rep 2":1.15e6}
{"gene":"Bap55","DRSC id":"DRSC07000","Kc cell number, rep 1":1.24e6,"Kc cell number, rep 2":1.26e6,"S2R+ cell number, rep 1":9.57e5,"S2R+ cell number, rep 2":1.06e6}
{"gene":"CG17186","DRSC id":"DRSC15180","Kc cell number, rep 1":1.46e6,"Kc cell number, rep 2":1.40e6,"S2R+ cell number, rep 1":1.18e6,"S2R+ cell number, rep 2":1.19e6}
{"gene":"Ppcs","DRSC id":"DRSC14127","Kc cell number, rep 1":1.53e6,"Kc cell number, rep 2":1.57e6,"S2R+ cell number, rep 1":1.19e6,"S2R+ cell number, rep 2":1.20e6}
